Measured values published in the supplement of paper PMC12819154, “High-throughput peptide-centric local stability assay extends protein–ligand identification to membrane proteins, tissues and bacteria” (Nature Structural & Molecular Biology, 2025).
This is one part of the list. Small differences around the control level are noise.

Amino acid sequences for entries named in this document (tags omitted). A change or cut given only in a name is not applied to a line headed by its entry.
UniProt Q8CDJ8: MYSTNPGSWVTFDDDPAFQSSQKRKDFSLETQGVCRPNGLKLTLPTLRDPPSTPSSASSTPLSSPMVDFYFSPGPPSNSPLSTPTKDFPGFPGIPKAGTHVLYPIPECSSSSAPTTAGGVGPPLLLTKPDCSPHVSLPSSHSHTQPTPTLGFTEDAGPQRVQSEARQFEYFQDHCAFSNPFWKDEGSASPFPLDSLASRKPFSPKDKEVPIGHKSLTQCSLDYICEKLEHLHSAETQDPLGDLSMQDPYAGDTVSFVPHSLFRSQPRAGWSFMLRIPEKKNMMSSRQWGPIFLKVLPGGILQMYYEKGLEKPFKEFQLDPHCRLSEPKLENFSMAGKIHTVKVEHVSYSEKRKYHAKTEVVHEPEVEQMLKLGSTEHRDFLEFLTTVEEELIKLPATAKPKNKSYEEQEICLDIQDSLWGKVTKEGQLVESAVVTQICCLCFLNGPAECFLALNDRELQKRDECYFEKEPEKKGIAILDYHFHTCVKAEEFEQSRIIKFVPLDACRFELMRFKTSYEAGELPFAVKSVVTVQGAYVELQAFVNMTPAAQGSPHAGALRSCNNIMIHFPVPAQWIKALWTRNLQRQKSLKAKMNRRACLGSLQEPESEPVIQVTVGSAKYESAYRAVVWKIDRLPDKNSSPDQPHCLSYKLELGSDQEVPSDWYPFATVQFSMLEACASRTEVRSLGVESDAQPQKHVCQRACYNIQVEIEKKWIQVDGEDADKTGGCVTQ
UniProt Q8CFG8: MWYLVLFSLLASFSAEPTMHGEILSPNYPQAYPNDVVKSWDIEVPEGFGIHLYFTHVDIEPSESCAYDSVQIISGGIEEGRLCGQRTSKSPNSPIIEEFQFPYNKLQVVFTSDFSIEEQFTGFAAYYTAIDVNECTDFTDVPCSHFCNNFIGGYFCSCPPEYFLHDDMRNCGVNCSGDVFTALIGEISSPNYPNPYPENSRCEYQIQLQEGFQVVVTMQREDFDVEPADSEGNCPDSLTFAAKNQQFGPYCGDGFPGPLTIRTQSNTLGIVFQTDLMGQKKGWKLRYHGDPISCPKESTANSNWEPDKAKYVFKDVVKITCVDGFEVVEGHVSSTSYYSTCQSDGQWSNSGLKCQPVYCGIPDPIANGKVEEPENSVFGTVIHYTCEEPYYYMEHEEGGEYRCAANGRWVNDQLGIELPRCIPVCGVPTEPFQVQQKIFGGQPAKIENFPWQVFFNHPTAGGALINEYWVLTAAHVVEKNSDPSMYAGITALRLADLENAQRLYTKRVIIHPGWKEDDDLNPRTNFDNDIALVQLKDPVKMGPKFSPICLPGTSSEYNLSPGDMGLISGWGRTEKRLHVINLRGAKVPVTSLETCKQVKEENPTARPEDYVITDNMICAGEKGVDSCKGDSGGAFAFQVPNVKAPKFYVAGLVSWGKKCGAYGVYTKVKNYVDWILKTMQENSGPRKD
UniProt Q8CGC4: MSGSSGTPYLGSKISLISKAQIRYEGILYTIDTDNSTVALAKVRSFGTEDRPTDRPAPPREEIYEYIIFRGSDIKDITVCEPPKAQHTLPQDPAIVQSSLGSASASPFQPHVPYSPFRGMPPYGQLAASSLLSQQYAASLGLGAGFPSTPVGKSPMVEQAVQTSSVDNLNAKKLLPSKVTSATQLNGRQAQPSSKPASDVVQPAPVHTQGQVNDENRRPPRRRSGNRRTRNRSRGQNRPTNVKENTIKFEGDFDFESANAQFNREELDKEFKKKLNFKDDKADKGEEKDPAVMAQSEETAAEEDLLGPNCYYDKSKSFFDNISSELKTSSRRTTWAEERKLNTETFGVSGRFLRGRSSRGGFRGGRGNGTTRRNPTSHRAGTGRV
UniProt Q8CIF6: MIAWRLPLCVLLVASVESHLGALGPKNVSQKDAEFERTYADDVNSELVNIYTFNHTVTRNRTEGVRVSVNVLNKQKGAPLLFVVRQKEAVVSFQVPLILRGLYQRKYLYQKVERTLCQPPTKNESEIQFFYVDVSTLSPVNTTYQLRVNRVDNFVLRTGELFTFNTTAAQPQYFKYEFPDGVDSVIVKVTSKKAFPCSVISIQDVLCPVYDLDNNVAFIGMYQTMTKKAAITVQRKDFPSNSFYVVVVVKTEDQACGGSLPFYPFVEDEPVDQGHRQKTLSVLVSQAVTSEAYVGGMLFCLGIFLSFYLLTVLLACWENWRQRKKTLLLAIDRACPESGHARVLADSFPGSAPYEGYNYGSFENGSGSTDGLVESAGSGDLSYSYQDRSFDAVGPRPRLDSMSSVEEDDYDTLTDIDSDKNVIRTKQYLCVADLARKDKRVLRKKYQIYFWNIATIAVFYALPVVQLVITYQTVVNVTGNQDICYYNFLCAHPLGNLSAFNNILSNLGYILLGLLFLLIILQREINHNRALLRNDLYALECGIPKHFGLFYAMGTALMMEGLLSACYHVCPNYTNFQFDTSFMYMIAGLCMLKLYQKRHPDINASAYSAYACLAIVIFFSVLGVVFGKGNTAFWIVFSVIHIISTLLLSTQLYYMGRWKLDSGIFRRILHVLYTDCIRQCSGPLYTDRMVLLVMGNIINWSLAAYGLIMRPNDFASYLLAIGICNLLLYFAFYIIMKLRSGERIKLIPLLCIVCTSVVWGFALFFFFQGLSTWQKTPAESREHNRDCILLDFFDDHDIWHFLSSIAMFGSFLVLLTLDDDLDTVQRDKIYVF
UniProt Q8CFK2: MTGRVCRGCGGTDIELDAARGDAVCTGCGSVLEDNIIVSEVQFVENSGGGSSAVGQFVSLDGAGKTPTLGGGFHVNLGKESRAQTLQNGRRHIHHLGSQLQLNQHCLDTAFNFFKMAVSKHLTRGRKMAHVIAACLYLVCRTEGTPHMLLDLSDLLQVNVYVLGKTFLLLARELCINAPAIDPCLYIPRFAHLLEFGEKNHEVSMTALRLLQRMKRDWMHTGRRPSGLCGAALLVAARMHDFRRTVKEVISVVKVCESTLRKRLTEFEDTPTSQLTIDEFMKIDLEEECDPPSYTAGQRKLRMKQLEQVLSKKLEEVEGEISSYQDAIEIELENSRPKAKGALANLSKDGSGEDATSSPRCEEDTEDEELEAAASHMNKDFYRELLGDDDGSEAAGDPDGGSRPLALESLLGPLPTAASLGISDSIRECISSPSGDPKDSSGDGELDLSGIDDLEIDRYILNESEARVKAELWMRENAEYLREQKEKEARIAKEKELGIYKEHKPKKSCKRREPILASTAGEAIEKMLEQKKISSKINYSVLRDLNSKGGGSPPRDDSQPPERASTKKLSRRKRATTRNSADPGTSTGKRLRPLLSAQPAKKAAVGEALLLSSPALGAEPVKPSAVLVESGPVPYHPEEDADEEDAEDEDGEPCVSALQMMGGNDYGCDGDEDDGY

compound: CN[C@@H]1C[C@H]2O[C@@](C)([C@@H]1OC)n1c3ccccc3c3c4c(c5c6ccccc6n2c5c31)C(=O)NC4 [staurosporine]; assay: log2 fold change of tryptic peptide abundance, ligand vs vehicle (limited proteolysis) (log2 ratio); higher = more trypsin-susceptible (destabilized); details: ligand concentration: 20 uM; sample: mouse liver crude lysate; replicate design: treated separately

| Target | log2 fold change |
| --- | --- |
| UniProt Q8CDJ8 (peptide sequence: QWGPIFLK, peptide start residue: 287) | -0.629 |
| UniProt Q8CFG8 (peptide sequence: VPVTSLETCK, peptide start residue: 587) | 0.232 |
| UniProt Q8CGC4 (peptide sequence: KLNTETFGVSGR, peptide start residue: 340) | 0.0951 |
| UniProt Q8CIF6 (peptide sequence: TLLLAIDR, peptide start residue: 326) | 0.273 |
| UniProt Q8CFK2 (peptide sequence: QLEQVLSK, peptide start residue: 305) | -0.375 |
